According to patent US20190324032A1 (University of California, published 2019):

Target: T1, His6-tagged mouse CRY1 PHR (photolyase homology region, amino acids 1-491) (mouse, UniProt P97784 1-491)
T1 construct: Expressed in Sf9 cells; also called wild-type CRY1 PHR; not shown: N-terminal His6 tag / vector residues
T1 sequence: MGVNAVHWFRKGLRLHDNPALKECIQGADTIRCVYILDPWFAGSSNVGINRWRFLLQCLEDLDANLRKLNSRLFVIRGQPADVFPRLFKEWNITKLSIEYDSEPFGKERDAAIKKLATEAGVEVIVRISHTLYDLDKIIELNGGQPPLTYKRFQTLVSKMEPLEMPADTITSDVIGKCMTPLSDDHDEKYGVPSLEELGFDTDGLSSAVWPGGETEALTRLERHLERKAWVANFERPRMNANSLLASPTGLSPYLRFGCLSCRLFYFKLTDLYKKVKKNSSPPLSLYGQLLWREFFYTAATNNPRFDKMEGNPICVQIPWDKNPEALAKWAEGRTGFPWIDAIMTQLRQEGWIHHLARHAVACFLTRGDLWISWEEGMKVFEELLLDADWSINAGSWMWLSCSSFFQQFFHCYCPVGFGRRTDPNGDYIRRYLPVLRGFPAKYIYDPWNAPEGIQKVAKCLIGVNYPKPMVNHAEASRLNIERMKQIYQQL
Assay: GST pull-down, GST-BMAL1 PAS-AB alone
Experimental: Soluble proteins were purified using GS4B resin (GE Healthcare). GST-tagged proteins were eluted with 10 mM glutathione and peak elution was desalted into 20 mM HEPES pH 7.5, 125 mM NaCl, 5% glycerol and 2 mM TCEP. […] After rotation at 4° C. overnight, reactions were washed 3 times with the above buffer and eluted with 6× SDS. Samples were boiled for ˜5 min. and loaded on an SDS-PAGE gel for visualization by Coomassie stain.

binding result: no binding
B1: GST-BMAL1 PAS-AB (other)
chain: TNPYTEANYKPTFLSDDELKHLILRAADGFLFVVGCDRGKILFVSESVFKILNYSQNDLIGQSLFDYLHPKDIAKVKEQLSSSDTAPRERLIDAKTGLPVKTDITPGPSRLCSGARRSFFCRMKCNRPSVKVEDKDFASTCSKKKDRKSFCTIHSTGYLKSWPPTKMGLDEDNEPDNEGCNLSCLVAIGRLHSHMVPQPANGEIRVKSMEYVSRHAIDGKFVFVDQRATAILAYLPQELLGTSCYEYFHQDDIGHLAECHRQVLQTREKITTNCYKFKIKDGSFITLRSRWFSFMNPWTKEVEYIV
notes: not shown: Glutathione S-Transferase (GST) tag; linker with TEV protease site between GST and BMAL1 PAS-AB
